Experimental data from article PMC8799570.
These are yes or no findings as the source states them, for the method shown. For some assays here: Binding seen in cells or lysates may run through a third protein. Some entries that bind do so weakly or less than the wild type. Values belong to the binder of their own block, whether it stands above or below them.

Key:
[1] = biological target: T1, TRAF2 (human (endogenous in AGS)) (UniProt Q12933); experiment: co-IP
T1 sequence: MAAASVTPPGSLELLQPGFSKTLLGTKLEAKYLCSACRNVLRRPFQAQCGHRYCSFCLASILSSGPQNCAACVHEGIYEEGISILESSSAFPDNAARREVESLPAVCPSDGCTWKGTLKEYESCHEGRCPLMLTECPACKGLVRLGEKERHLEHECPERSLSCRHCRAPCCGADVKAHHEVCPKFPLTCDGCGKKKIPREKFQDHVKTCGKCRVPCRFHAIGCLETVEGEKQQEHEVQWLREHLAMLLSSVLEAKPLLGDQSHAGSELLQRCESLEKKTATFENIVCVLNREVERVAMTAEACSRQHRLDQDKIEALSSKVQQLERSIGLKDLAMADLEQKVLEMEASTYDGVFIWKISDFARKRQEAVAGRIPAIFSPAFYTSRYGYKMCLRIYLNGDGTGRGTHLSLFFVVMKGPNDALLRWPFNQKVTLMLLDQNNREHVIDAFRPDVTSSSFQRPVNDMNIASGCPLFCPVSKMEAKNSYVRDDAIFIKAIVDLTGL

[2] = biological target: T2, recombinant human A20 protein (human) (UniProt P21580); experiment: co-IP; 50 ng recombinant human A20 and TIFA combined in 500 μl PBS for 1 h at 4 °C, then IP with 1 µg antibody against A20 or isotype-matched IgG for 1 h, immunoblot; both purified
T2 sequence: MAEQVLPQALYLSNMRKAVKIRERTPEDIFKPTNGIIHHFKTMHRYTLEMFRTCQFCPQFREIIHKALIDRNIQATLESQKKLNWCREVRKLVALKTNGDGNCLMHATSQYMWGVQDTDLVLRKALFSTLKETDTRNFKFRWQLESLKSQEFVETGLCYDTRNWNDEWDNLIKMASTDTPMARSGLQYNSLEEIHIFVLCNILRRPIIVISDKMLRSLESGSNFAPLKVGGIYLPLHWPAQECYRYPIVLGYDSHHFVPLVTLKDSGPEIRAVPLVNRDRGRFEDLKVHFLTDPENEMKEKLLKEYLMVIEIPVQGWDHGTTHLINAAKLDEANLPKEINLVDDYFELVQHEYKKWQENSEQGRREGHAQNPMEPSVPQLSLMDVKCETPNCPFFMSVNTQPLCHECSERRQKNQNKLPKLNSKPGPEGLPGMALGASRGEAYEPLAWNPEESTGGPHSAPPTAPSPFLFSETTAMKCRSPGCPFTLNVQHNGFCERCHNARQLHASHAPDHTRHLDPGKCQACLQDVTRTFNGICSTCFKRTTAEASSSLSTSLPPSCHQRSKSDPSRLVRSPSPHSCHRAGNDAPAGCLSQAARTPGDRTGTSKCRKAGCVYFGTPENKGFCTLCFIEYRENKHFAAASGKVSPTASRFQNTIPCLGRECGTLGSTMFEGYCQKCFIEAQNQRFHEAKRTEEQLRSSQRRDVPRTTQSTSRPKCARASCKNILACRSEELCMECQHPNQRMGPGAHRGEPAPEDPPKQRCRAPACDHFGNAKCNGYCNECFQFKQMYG

binding [1]: binds
B1: tumor necrosis factor receptor-associated factor-interacting protein with forkhead-associated domain (TIFA) (protein, UniProt Q96CG3 1-184)
chain: MTSFEDADTEETVTCLQMTVYHPGQLQCGIFQSISFNREKLPSSEVVKFGRNSNICHYTFQDKQVSRVQFSLQLFKKFNSSVLSFEIKNMSKKTNLIVDSRELGYLNKMDLPYRCMVRFGEYQFLMEKEDGESLEFFETQFILSPRSLLQENNWPPHRPIPEYGTYSLCSSQSSSPTEMDENES

binding [2]: binds
B2: recombinant human TIFA protein (protein, UniProt Q96CG3 1-184)
chain: B1 chain
